These are yes or no findings as the source states them, for the method shown. Binding seen in cells or lysates may run through a third protein. Some results given as binding are weak or reduced against the parent protein; the word gives no strength.
Molecular target: fibronectin (Fn) of human spermatozoa (human (endogenous in spermatozoa)) (UniProt P02751)
Test: co-IP; 500 µg spermatozoa lysate in RIPA buffer, mouse Fn antibody and protein A/G Plus-agarose beads at 4°C, blot with rabbit Eppin antibody

The chains behind the UniProt entries cited, without tags or fusion partners. Residues count along the entry.
UniProt P02751, residues 32-2477: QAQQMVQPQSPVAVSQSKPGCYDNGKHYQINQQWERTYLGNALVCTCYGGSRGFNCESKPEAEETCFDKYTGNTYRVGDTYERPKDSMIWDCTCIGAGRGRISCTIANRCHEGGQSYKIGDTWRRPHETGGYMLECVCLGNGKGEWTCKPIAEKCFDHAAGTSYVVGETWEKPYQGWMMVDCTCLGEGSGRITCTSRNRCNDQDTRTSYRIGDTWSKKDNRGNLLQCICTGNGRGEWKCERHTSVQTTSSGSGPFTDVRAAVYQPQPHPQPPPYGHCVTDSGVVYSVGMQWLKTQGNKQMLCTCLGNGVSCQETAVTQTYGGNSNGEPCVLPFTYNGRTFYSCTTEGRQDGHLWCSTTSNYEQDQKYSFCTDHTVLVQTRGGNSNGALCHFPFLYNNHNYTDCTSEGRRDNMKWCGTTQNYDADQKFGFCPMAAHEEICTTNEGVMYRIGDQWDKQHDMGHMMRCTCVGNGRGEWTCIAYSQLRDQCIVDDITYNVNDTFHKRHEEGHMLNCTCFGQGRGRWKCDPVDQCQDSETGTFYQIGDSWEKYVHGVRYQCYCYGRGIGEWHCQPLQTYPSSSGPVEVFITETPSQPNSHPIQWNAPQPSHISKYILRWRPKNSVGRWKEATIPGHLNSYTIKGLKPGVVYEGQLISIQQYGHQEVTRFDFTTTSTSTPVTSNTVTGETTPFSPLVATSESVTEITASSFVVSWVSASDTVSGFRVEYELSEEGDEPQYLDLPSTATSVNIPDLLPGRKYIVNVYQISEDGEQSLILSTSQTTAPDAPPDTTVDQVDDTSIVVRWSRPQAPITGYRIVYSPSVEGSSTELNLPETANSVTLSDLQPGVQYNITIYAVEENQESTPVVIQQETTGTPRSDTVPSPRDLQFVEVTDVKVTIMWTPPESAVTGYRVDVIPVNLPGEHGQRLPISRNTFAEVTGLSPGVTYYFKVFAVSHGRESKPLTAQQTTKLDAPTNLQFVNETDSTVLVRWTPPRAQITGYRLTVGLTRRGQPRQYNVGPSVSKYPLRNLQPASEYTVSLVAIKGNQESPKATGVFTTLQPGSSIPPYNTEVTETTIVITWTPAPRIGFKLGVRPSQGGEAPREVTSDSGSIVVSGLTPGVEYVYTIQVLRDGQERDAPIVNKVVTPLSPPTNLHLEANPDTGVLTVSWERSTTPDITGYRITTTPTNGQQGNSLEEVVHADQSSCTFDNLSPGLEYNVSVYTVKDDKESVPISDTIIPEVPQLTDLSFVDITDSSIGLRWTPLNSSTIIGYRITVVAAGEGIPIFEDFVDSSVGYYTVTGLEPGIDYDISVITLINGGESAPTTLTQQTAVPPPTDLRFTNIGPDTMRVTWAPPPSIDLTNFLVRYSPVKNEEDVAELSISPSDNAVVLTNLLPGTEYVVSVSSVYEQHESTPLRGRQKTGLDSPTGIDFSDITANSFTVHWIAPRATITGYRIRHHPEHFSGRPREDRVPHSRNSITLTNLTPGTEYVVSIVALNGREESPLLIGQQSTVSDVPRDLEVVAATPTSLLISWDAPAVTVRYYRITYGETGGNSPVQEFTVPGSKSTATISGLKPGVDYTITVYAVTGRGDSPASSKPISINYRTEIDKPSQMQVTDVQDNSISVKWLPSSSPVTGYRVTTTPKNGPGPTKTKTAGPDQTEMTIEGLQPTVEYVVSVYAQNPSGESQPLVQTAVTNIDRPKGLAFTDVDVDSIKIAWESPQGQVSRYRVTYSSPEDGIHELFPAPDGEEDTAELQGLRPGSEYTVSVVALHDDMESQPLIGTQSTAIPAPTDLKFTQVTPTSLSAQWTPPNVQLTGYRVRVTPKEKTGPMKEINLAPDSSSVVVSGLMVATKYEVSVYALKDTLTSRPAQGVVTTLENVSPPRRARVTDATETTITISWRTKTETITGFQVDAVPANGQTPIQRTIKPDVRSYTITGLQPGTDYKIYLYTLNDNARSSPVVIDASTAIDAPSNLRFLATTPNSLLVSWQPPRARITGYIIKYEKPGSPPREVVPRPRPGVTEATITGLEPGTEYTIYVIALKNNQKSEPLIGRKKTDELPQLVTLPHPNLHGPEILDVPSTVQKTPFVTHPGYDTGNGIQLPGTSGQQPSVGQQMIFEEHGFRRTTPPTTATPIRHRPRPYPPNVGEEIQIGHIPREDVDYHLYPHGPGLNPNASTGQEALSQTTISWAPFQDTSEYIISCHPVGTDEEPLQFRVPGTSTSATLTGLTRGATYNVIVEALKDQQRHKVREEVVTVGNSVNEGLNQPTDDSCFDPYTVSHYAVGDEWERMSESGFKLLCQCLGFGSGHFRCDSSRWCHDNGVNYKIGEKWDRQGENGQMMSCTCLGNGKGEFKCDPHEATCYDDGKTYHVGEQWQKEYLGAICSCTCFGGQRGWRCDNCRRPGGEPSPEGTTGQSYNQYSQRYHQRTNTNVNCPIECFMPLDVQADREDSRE
UniProt O95925, residues 22-133: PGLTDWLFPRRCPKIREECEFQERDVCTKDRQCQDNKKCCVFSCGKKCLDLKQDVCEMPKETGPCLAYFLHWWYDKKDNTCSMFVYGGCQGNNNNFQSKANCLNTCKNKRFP

Eppin of human spermatozoa (from UniProt O95925 22-133)
binding: binds
